# According to paper PMC8386835:
# These are yes or no findings as the source states them, for the method shown. Binding calls can cover weak binding; strength is not graded here. Tags and fused reporters may be left off the sequences shown. For part of these data: Binding seen in cells or lysates may run through a third protein.
# T1: MYC-MTL5 (mouse) (UniProt Q9WTJ6)
# T1 sequence: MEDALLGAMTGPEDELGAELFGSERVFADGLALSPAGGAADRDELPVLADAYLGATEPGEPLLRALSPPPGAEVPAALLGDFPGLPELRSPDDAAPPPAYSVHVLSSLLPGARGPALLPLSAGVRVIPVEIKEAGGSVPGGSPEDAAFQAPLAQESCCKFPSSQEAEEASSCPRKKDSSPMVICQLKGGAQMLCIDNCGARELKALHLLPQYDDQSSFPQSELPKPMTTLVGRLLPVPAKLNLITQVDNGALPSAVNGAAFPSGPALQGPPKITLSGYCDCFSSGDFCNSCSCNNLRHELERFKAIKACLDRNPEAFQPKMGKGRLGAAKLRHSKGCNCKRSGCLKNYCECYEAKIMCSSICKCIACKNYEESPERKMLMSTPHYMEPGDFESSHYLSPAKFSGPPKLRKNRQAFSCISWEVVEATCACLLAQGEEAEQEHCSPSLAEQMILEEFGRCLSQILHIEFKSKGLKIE
# Biological target: BD-LIN9 (mouse)
# Assay: two-hybrid; AD prey in Y187 mated with BD bait in AH109; growth on -LW, -LWH with 5 mM 3-AT and -LWHA plates at 30°C for 3-5 days
row,binding,Molecule
1,no binding,"AD-MTL5-N (1–250 aa) (domain or fragment, UniProt Q9WTJ6-1 1-250) MEDALLGAMTGPEDELGAELFGSERVFADGLALSPAGGAADRDELPVLADAYLGATEPGEPLLRALSPPPGAEVPAALLGDFPGLPELRSPDDAAPPPAYSVHVLSSLLPGARGPALLPLSAGVRVIPVEIKEAGGSVPGGSPEDAAFQAPLAQESCCKFPSSQEAEEASSCPRKKDSSPMVICQLKGGAQMLCIDNCGARELKALHLLPQYDDQSSFPQSELPKPMTTLVGRLLPVPAKLNLITQVDNG"
2,binds,"AD-MTL5 (protein, UniProt Q9WTJ6-1 1-475) MEDALLGAMTGPEDELGAELFGSERVFADGLALSPAGGAADRDELPVLADAYLGATEPGEPLLRALSPPPGAEVPAALLGDFPGLPELRSPDDAAPPPAYSVHVLSSLLPGARGPALLPLSAGVRVIPVEIKEAGGSVPGGSPEDAAFQAPLAQESCCKFPSSQEAEEASSCPRKKDSSPMVICQLKGGAQMLCIDNCGARELKALHLLPQYDDQSSFPQSELPKPMTTLVGRLLPVPAKLNLITQVDNGALPSAVNGAAFPSGPALQGPPKITLSGYCDCFSSGDFCNSCSCNNLRHELERFKAIKACLDRNPEAFQPKMGKGRLGAAKLRHSKGCNCKRSGCLKNYCECYEAKIMCSSICKCIACKNYEESPERKMLMSTPHYMEPGDFESSHYLSPAKFSGPPKLRKNRQAFSCISWEVVEATCACLLAQGEEAEQEHCSPSLAEQMILEEFGRCLSQILHIEFKSKGLKIE"
3,no binding,"AD-MTL5-M (251–370 aa) (domain or fragment, UniProt Q9WTJ6-1 251-370) ALPSAVNGAAFPSGPALQGPPKITLSGYCDCFSSGDFCNSCSCNNLRHELERFKAIKACLDRNPEAFQPKMGKGRLGAAKLRHSKGCNCKRSGCLKNYCECYEAKIMCSSICKCIACKNY"
4,binds,"AD-MTL5-C (371–475 aa) (domain or fragment, UniProt Q9WTJ6-1 371-475) EESPERKMLMSTPHYMEPGDFESSHYLSPAKFSGPPKLRKNRQAFSCISWEVVEATCACLLAQGEEAEQEHCSPSLAEQMILEEFGRCLSQILHIEFKSKGLKIE"

# Biological target: BD-LIN9-C (341–559 aa) (mouse)
# Assay: as above
row,binding,Molecule
1,no binding,"SWEVVEATCACLLAQGEEAEQEHC (domain or fragment, UniProt Q9WTJ6-1 419-442) [AD-MTL5-C2 (419–442 aa)]"
2,no binding,"EESPERKMLMSTPHYMEPGDFESSHYLSPAKFSGPPKLRKNRQAFSCI (domain or fragment, UniProt Q9WTJ6-1 371-418) [AD-MTL5-C1 (371–418 aa)]"
3,binds,"SPSLAEQMILEEFGRCLSQILHIEFKSKGLKIE (domain or fragment, UniProt Q9WTJ6-1 443-475) [AD-MTL5-C3 (443–475 aa)]"
4,binds,"AD-MTL5-C (371–475 aa) (domain or fragment, UniProt Q9WTJ6-1 371-475) EESPERKMLMSTPHYMEPGDFESSHYLSPAKFSGPPKLRKNRQAFSCISWEVVEATCACLLAQGEEAEQEHCSPSLAEQMILEEFGRCLSQILHIEFKSKGLKIE"

# Biological target: T1, MYC-MTL5 (mouse)
# Assay: co-IP; HEK293T co-transfected with MYC-tagged MTL5 and GFP-tagged partner; NP-40 buffer lysate, Myc-Tag magnetic beads, overnight at 4°C; Western blot
row,binding,Molecule
1,binds,GFP-LIN9 (mouse)
